Some results were stated once for a whole list of compounds, not compound by compound.
System: HeLa Zellen
Experiment: Laser scanning microscopy of uptake into living cells
Assay type: cell-based
Conditions: 20 µM, 30 min, serum-free DMEM, localisation in cytoplasm, nucleus and nucleoli, FIG.1A and 1B

Compound | Aufnahme und intrazelluläre Anreicherung der Verbindungen
CN(C)c1ccc2c(-c3ccc(C(=O)NCCC[Si]45O[Si]6(CCCN)O[Si]7(CCCN)O[Si]8(CCCN)O[Si](CCCN)(O6)O[Si](CCCN)(O[Si](CCCN)(O8)O[Si](CCCN)(O7)O4)O5)cc3C(=O)O)c3ccc(=[N+](C)C)cc-3oc2c1 [Verbindung 2, TAMRA-heptaammonium-COSS] | Aufnahme und intrazelluläre Anreicherung
TAMRA-hepta-4-aminobuttersäure-COSS-amid [Verbindung 5] | Aufnahme und intrazelluläre Anreicherung
TAMRA-hepta-4-guanidinobuttersäure-COSS-amid [Verbindung 7] | Aufnahme und intrazelluläre Anreicherung
TAMRA-hepta-4-trimethylammoniumbuttersäure-COSS-amid [Verbindung 6] | Aufnahme und intrazelluläre Anreicherung
TAMRA-heptaguanidin-COSS [Verbindung 4] | Aufnahme und intrazelluläre Anreicherung

Reference: patent EP3448864B1, “SILSE[…] TRANSPORT COMPOUNDS” (Technische Universität Darmstadt, priority 2016, dated 2017)
